No constants are given. Whether binding was seen depends on the method and setting. In cells and extracts the contact can be indirect. Some entries that bind do so weakly or less than the wild type.
Target: T1, SLIT2 (UniProt O94813)
T1 sequence: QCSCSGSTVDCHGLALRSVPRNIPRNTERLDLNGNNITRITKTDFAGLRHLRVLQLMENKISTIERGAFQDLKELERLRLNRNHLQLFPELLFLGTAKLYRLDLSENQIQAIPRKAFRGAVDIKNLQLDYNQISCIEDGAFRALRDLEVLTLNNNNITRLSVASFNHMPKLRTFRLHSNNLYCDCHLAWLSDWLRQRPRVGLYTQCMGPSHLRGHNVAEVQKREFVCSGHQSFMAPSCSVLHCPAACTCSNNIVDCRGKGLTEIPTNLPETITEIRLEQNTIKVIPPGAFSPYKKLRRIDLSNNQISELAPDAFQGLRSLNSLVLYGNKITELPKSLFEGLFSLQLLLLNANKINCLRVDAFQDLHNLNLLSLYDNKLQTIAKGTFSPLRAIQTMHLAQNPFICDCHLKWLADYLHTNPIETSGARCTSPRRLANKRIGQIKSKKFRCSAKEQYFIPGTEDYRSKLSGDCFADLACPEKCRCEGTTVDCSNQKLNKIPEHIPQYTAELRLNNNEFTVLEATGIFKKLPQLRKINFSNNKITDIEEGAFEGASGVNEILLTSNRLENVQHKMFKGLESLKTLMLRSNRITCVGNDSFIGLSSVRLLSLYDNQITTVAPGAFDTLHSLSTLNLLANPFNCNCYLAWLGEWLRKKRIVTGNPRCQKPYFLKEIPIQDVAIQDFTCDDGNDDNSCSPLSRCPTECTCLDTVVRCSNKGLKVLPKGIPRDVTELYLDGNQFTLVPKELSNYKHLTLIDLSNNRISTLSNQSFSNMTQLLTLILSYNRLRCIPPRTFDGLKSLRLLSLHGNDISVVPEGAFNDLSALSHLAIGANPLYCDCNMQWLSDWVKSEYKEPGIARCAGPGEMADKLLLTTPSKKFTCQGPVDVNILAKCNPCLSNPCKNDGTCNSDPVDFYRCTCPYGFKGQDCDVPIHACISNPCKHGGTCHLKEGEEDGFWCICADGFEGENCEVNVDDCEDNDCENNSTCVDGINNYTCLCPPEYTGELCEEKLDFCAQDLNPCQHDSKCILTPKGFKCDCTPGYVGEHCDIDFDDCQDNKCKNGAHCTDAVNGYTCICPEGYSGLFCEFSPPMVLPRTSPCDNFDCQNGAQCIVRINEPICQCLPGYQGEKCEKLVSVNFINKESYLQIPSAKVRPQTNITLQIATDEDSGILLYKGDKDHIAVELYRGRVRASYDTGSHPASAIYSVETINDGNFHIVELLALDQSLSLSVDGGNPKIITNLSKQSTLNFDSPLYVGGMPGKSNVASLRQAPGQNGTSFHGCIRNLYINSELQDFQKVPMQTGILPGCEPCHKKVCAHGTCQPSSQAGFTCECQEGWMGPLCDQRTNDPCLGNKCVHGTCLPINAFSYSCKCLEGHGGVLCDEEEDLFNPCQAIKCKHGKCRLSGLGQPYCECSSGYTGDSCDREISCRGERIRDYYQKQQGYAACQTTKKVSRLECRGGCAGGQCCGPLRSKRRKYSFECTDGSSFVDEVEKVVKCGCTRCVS
Assay: co-IP; immunoprecipitation with anti-SLIT2 antibody or control IgG from cells overexpressing ROBO1^WT or ROBO1^E280*; ROBO1 detected in the immunoprecipitates

The chains behind the UniProt entries cited, without tags or fusion partners. Where a name states a change or a piece, a line headed by the entry shows the natural chain unless it says otherwise.
UniProt Q9Y6N7: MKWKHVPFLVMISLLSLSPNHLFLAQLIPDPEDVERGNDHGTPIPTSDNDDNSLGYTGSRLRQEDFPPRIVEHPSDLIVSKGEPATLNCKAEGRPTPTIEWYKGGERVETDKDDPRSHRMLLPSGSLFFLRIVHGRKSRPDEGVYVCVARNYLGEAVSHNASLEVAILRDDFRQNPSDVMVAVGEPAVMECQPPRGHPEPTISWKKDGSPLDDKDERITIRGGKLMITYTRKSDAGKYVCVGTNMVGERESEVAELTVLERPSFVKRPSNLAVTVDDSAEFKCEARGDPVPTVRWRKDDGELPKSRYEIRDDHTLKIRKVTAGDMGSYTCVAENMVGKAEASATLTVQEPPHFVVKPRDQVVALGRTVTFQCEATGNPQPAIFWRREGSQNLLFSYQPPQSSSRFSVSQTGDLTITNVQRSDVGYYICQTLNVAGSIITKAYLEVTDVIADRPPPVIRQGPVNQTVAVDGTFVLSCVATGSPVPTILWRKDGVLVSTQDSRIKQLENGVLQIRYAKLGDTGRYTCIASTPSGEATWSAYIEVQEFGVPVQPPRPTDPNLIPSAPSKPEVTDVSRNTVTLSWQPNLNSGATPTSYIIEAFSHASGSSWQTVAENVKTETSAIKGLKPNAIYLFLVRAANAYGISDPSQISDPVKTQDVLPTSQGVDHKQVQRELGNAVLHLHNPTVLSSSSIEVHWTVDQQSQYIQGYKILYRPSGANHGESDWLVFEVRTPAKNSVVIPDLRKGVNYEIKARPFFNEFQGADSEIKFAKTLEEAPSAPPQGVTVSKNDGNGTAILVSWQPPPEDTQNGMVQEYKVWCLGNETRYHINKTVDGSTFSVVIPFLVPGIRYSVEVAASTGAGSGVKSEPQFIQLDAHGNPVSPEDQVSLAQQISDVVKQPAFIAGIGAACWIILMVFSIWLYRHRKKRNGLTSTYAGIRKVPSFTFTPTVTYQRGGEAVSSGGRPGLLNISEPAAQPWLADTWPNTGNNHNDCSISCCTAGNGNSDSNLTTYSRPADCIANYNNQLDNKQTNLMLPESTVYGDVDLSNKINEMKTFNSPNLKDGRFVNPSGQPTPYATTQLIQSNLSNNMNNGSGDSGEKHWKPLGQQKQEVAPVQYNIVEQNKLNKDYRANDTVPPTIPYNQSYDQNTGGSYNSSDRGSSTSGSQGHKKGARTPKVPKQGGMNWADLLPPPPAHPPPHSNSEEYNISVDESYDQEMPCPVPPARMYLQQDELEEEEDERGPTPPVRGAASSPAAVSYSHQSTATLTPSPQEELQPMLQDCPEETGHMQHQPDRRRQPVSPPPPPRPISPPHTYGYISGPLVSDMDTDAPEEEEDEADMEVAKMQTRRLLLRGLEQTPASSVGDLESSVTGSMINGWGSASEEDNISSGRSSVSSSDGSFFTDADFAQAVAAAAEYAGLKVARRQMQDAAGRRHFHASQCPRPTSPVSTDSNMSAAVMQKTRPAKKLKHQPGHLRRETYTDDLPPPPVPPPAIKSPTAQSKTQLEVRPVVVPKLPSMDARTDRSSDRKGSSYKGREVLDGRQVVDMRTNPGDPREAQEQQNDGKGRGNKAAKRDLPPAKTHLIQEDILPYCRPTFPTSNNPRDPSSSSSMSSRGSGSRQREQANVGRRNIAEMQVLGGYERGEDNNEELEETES

For “ROBO1 p.E280* (c.838G>T) truncated protein (from UniProt Q9Y6N7 26-279) (domain or fragment)”, which binding is on record?
The binding was “no binding”.

“ROBO1 wild type (from UniProt Q9Y6N7 26-1651) (receptor)” was tested. Which binding did it give?
Its binding is “binds”.

From paper PMC9124974
